PubChem BioAssay AID2685 (National Center for Advancing Translational Sciences (NCATS), 2010)
This is one part of the list. The main result of the screen is listed elsewhere. These columns were measured beside it and carry no call. Compounds called inactive in the main read-out are mostly missing here. Words in brackets tell the shape of the fitted curve; partial curves, single points and poor fits give uncertain potencies.

Experiment: qHTS Assay for Lipid Storage Modulators in Drosophila S3 Cells;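 as to cell number change: cells counted by Cell Tracker Red CMTPX staining in the red channel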
Conditions: BODIPY lipid droplet fluorescence, 18-24 h; for cell number change: measured here: cell count max response, cells fed with added oleic acid
Method in brief: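 Drosophila S3 cells got compounds at several concentrations plus oleic acid (400 uM solution). Laser-scanning cytometry with 488 nm excitation read lipid droplets at 500-530 nm and cells at 575-640 nm. Percent activity was relative to 20 uM Triacsin C.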

[1] = measured here: cell number channel AC50, cells fed with added oleic acid
[2] = measured here: lipid fluorescence (Fed channel) AC50, cells fed with added oleic acid

| Structure (SMILES) | cell number change | AC50 [1] | AC50 [2] |
| --- | --- | --- | --- |
| O=C(NCc1nnc2n1CCCCC2)c1ccc(Cl)cc1Cl | 19.8% |  |  |
| CC(C)Oc1ccc(C(CC(=O)O)NC(=O)c2cccs2)cc1 (stereo not given) | -26.7% | 3.66 µM [falling, full curve, poor fit] | 3.66 µM [falling, full curve] |
| O=C1C=C(O)c2c(O)cccc2C1=O | 5.24% |  | 6.51 µM [rising, single point] |
| COCCOCCOCCC(=O)NC1CC2CCC1(C)C2(C)C (stereo not given) | 2.16% |  |  |
| COc1ccc(CNC(=O)[C@H](C)NC(=O)N2CCn3c2nc2ccccc23)cc1 | 38.3% | 29.1 µM [rising, single point] |  |
| CCCCC/C(=N\NC(=O)Nc1ccccc1)c1ccccc1 | -11.1% |  | 0.103 µM [falling, full curve, poor fit] |
| CC/C(C)=N\NC(=O)CNC(=O)c1ccc(Cl)cc1Cl | 7.27% |  |  |
| Cc1ccc2ccccc2c1COC(=O)c1nonc1N | -43.2% | 18.4 µM [falling, single point] |  |
| Cc1ccccc1-n1nc(C)c2cc(C(=O)N3CCN(S(=O)(=O)c4ccccc4)CC3)sc21 | -6.97% |  | 1.03 µM [rising, full curve] |
| O=C(c1ccccc1)N(c1ccccc1)C1C=CS(=O)(=O)C1 (stereo not given) | 16% | 4.11 µM [falling, single point] |  |
| Cc1cc(=O)oc(C)c1C(=O)N[C@@H](Cc1ccccc1)C(=O)O | 4.5% |  | 29.1 µM [rising, single point] |
| Cc1cccc(CSCCNC(=O)CCSc2ccccc2)c1 | -30.5% | 29.1 µM [falling, single point] | 18.4 µM [falling, single point] |
| COc1cccc(CN(C)C(=O)c2ccc(COc3ccc(Cl)cc3)cc2)c1OC | 14.3% |  | 29.1 µM [rising, single point] |
| Cn1c(CSCc2ccc(Cl)cc2)n[nH]c1=S |  |  | 29.1 µM [rising, single point] |
| Cc1c(NC(=O)c2ccc(NC(=O)C3CC3)cc2)cccc1C(=O)O | 26.4% |  | 12.6 µM [rising, partial curve] |
| CC1(C)CC(=O)N(CC(=O)O)c2ccccc2S1(=O)=O | 4.82% | 0.13 µM [falling, full curve, poor fit] |  |
| CC(=O)c1ccc(N2CCN(S(=O)(=O)c3ccc4c5c3CC(=O)N5CC(C)S4)CC2)cc1 (stereo not given) | -2.75% |  |  |
| C=CCNC(=O)c1cc(-c2ccc3c(c2)OCO3)on1 | 14.9% |  |  |
| CCCn1c2ccccc2c2nnc(SCc3[nH]c(=O)[nH]c3C(=O)CCCCC(=O)OCC)nc21 | -44% | 23.1 µM [falling, single point] |  |
| Cc1ccc(C(C)C)cc1OCCN1CCCC1 | 33.3% | 0.116 µM [rising, full curve, poor fit] |  |
| Cc1ccccc1/C=N/Nc1ccnc2cc(Cl)ccc12 | -84.5% | 29.1 µM [falling, single point] | 1.3 µM [rising, partial curve] |

| Structure (SMILES) | cell number change | AC50 [1] | AC50 [2] |
| --- | --- | --- | --- |
| Brc1cc2[nH]cnc2c2ccccc12 |  | 2.91 µM [rising, partial curve] |  |
| N#Cc1cccc(S(=O)(=O)NCC(=O)NCCCc2ccccc2)c1 | 12.2% |  | 8.2 µM [rising, partial curve, poor fit] |
| CN1CCc2nc(SC(C(=O)O)c3ccccc3)c(C#N)c(-c3cccs3)c2C1 (stereo not given) | 7.67% |  | 5.17 µM [falling, partial curve] |
| Cc1cc(Cl)nc2c(C(C)C)cccc12 | -45.1% | 3.26 µM [falling, partial curve, poor fit] |  |
| CCN(CC)S(=O)(=O)c1ccc(N2CCOCC2)c(NC(=O)c2cc(=O)[nH]c3ccccc23)c1 |  |  | 0.58 µM [rising, single point] |
| Cc1ccccc1OCC(=O)Nc1ccc2c(c1)C(=O)N(CCC(=O)O)C2=O | 9.09% |  | 0.0731 µM [rising, full curve, poor fit] |
| O=C1Nc2ccccc2/C1=C/c1cnc(-c2ccccc2)[nH]1 | 16.3% |  | 29.1 µM [falling, single point] |
| COc1ccc(N2CC(C(=O)NC3CCSC3=O)CC2=O)cc1 (stereo not given) | 7.89% | 3.66 µM [falling, single point] |  |
| Cc1[nH]c2ccccc2c1C(=O)CSC(=S)N(C)C1CCCCC1 | -0.884% |  |  |
| COc1ccc(C(=O)NNC(=O)C(=O)N2CCCCC2)cc1OC | -2.35% |  | 25.9 µM [rising, single point] |
| CCOc1ccc(Nc2nc(N3CCCCC3)nc(N3CCCCC3)n2)cc1 | -10.9% |  |  |
| N/C(=N\OC(=O)Oc1ccccc1)c1ccc(Br)cc1 | 41.2% | 18.4 µM [rising, single point] | 0.731 µM [falling, single point] |
| CCOc1ccccc1NC(=O)c1ccc(S(=O)(=O)N(C)c2ccccc2)cc1 | 16.3% |  | 29.1 µM [rising, single point] |
| O=C1CCC(=O)N1c1ccc(S(=O)(=O)Nc2cccc(Br)c2)cc1 | 43.6% | 29.1 µM [rising, single point] |  |
| COc1ccccc1CNC(=O)[C@H](C)NC(=O)C1CCN(C(=O)[C@@H](N)Cc2ccccc2)CC1 | 23% |  | 20.6 µM [rising, partial curve] |
| CCOC(=O)C1CCN(C(=O)c2ccccc2N(C)S(C)(=O)=O)CC1 | -2.03% |  | 29.1 µM [falling, single point] |
| O=C1C=C(c2ccc(-c3ccccc3)cc2)C[C@@H](c2ccc(Cl)cc2)C1 | -3.38% | 0.146 µM [falling, full curve, poor fit] | 0.164 µM [falling, full curve, poor fit] |
| CN(C(=O)c1cc(COc2ccc(F)c(F)c2)on1)C1CCOC1 (stereo not given) | -28.1% |  | 6.51 µM [rising, single point] |
| Cc1ccc(Sc2oc(/C=N/n3cnnc3)cc2Br)cc1 | 1.55% |  | 0.0058 µM [rising, full curve, poor fit] |
| CCN1CCc2c(sc(NC(=O)C3CCCCC3)c2C(=O)OC)C1 | -18.4% |  | 6.51 µM [rising, single point] |
| CC(=O)c1ccc(NC(=S)NC(C)c2ccc(Cl)cc2Cl)cc1 (stereo not given) | 2.81% |  | 16.4 µM [falling, partial curve] |

| Structure (SMILES) | cell number change | AC50 [1] | AC50 [2] |
| --- | --- | --- | --- |
| Cc1nc2ccccc2n1CC(O)Cn1c(C(F)(F)F)nc2ccccc21 (stereo not given) | -23.5% |  | 29.1 µM [falling, single point] |
| Cc1ccc(C(=O)NC2CCCCCCC2)c(Cl)c1 | 12% |  |  |
| CC(=O)N(Cc1ccc(F)cc1)c1cccc(C)c1C | 6.43% |  |  |
| O=[N+]([O-])c1ccc2nc(-c3ccccc3)oc2c1 | -1.59% | 0.651 µM [rising, single point] |  |
| Cc1onc(-c2ccccc2Cl)c1C(=O)Nc1cccc2nsnc12 | 13% |  | 1.64 µM [rising, full curve] |
| COc1ccc(-c2nc(C3CCCCC3)c3cc(OC)ccc3n2)cc1 | -6.86% |  |  |
| Cc1cc(C(=O)Nc2sc(C)c(C)c2C#N)c(C)o1 | 130% | 9.2 µM [rising, partial curve] | 7.31 µM [rising, partial curve] |
| O=C(CSc1nnc(NC2CCCCC2)s1)NCc1ccco1 | 7.44% | 1.16 µM [rising, full curve] | 0.82 µM [rising, full curve] |
| c1cnc2c(OCc3cn4cccnc4n3)cccc2c1 | 49.5% | 0.231 µM [rising, partial curve] |  |
| O=S(=O)(NCc1ccc(F)cc1)c1ccc(-c2cnc(C3CC3)o2)cc1 | -65.6% | 20.6 µM [falling, partial curve, poor fit] | 20.6 µM [falling, single point] |
| Cc1ccccc1CN1C(=O)/C(=C\c2ccc(C(=O)NCCN3CCOCC3)cc2)Sc2ccccc21 | -31.8% | 16.4 µM [falling, partial curve, poor fit] | 5.8 µM [falling, partial curve] |
| O=c1c2c([nH]c3ccccc13)CCCCCC2 |  | 0.326 µM [falling, partial curve, poor fit] |  |
| CCOC(=O)/C(=C\c1cccnc1)C(=O)c1cc(C(C)=O)c(Nc2ccccc2)s1 | -84.6% | 29.1 µM [falling, single point] | 29.1 µM [falling, single point] |
| Cc1c(C(=O)N2CCCC2)oc2c1-c1nn(CC(=O)NCCCOC(C)C)cc1CC2 | 42.2% | 29.1 µM [rising, single point] |  |
| O=C(O)CC(C(=O)O)c1cn(Cc2ccccc2)c2ccccc12 (stereo not given) | 6.82% |  | 0.731 µM [falling, full curve, poor fit] |
| Cn1c(O)c(/C=C2\C=Nc3ccccc32)sc1=Nc1ccc(C(=O)O)cc1 | -8.97% | 0.231 µM [falling, full curve, poor fit] | 0.731 µM [falling, full curve] |
| Cc1ccc(N(C(=O)CNC(=O)c2ccco2)C(C(=O)NC2CCCCC2)c2cccnc2)cc1F (stereo not given) | -6.67% |  | 29.1 µM [rising, partial curve] |
| S=C(NCCCN1CCOCC1)N1CCN(c2ccccc2)CC1 |  |  | 6.51 µM [rising, single point] |
| CCOc1ccccc1-n1c(SCC(N)=O)nnc1-c1ccco1 | -1.21% |  | 0.58 µM [rising, single point] |
| Nc1c(C(=O)OCC2CCCO2)c2nc3ccccc3nc2n1C1CCCCC1 (stereo not given) | 15.4% |  | 0.82 µM [rising, full curve] |

Gathered by group: the entries above containing a cyano group

| Structure (SMILES) | cell number change | AC50 [1] | AC50 [2] |
| --- | --- | --- | --- |
| N#Cc1cccc(S(=O)(=O)NCC(=O)NCCCc2ccccc2)c1 | 12.2% |  | 8.2 µM [rising, partial curve, poor fit] |
| CN1CCc2nc(SC(C(=O)O)c3ccccc3)c(C#N)c(-c3cccs3)c2C1 (stereo not given) | 7.67% |  | 5.17 µM [falling, partial curve] |
| Cc1cc(C(=O)Nc2sc(C)c(C)c2C#N)c(C)o1 | 130% | 9.2 µM [rising, partial curve] | 7.31 µM [rising, partial curve] |
